# Assay results as given in PubChem BioAssay AID2551 (National Center for Advancing Translational Sciences (NCATS), 2010).
# The chains behind the UniProt entries cited, without tags or fusion partners. Where a name states a change or a piece, a line headed by the entry shows the natural chain unless it says otherwise.
# UniProt P51450: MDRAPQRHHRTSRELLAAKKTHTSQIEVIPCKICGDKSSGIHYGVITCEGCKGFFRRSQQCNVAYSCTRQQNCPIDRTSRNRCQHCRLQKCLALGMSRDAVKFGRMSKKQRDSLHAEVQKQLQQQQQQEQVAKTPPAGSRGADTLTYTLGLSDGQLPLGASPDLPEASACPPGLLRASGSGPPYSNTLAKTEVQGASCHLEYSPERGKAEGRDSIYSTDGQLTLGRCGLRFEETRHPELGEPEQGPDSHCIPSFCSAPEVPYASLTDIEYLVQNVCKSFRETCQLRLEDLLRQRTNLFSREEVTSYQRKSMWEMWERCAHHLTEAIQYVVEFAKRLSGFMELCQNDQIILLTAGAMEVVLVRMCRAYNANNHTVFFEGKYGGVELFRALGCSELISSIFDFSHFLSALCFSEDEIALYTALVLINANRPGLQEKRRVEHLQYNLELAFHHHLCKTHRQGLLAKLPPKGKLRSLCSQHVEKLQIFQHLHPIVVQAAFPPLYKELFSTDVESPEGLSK
# About 17,000 (5.5%) of roughly 310,000 compounds were called active. Inconclusive results, whose numbers are uncertain, are shown with a selection of clear calls. Calls come from the whole dose curve; as a rule, active = well fitted inhibition curve with a large enough effect; inconclusive = small, poorly fitted or top-dose-only effect, or effect the other way; inactive = no such curve, though single readings can be large or run the other way. A potency beside an inconclusive call is a rough fit, not a confirmed value.
# Target: Nuclear receptor ROR-gamma (Mus musculus) (UniProt P51450)
# Assay: qHTS for inhibitors of ROR gamma transcriptional activity; note: nearly all actives have a fitted effect of over 60% in size
# Conditions: Drosophila S2 Gal4-RORgamma UAS-luciferase reporter, 20 h; activity change, negative = inhibition: at 53.6 µM (top of the series)
# Outline: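 A Gal4/UAS one-hybrid system in insect cells: metallothionein-promoter Gal4–ROR gamma fusion plus Photinus luciferase reporter. Copper sulfate 700 uM final, 20 hr ambient incubation, luminescent detection after 10 min with reagent.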
# % is set by controls: 0 for no effect and ±100 for the full control effect; potency is the fitted concentration of half-maximal effect.
SMILES,Potency,"activity change, negative = inhibition"
O=C(Nc1ccon1)c1cc(-c2ccccc2)nc2ccccc12,"inconclusive: 15.8 µM [inhibitor, single point]",–
CCOc1ccccc1Nc1nnc(SCc2ccc(C(=O)OC)o2)s1,"inconclusive: 35.5 µM [inhibitor, single point]",–
COCCCNc1nc(=S)[nH]c2cc(OC)c(OC)cc12,"inconclusive: 8.91 µM [inhibitor, partial curve]",–
Cc1cc(/C=c2/sc3nc4ccccc4n3c2=O)c(C)n1-c1ccccn1,active: 0.1 µM,–
COc1ccc(CNc2nnnn2C)c(OC)c1,inactive,–
Cn1c(=O)[nH]c2ncccc21,inactive,–
Cc1cc(NC(=O)c2cccc(C(=O)Nc3cc(C)on3)n2)no1,"inconclusive: 11.2 µM [inhibitor, partial curve, poor fit]",–
O=c1c2c3c(sc2nc2sc(C4CC4)nn12)CCCC3,"inconclusive: 7.08 µM [activator, full curve, poor fit]",–
COc1ccc(NCC(=O)N/N=C(\C)c2cc3ccccc3o2)cc1,"inconclusive: 25.1 µM [activator, single point]",–
O=C(Nc1nc(-c2ccccc2)c(C(=O)c2ccccc2)s1)c1ccc(S(=O)(=O)N2CCCC2)cc1,"inconclusive: 14.1 µM [activator, partial curve]",–
c1ccc(Cn2nnc3c(NCC4CCCO4)ncnc32)cc1 (stereo not drawn),"inconclusive: 3.16 µM [activator, single point]",–
COc1ccc2cc(C#N)c(Nc3cccc(F)c3)nc2c1,"inconclusive: 35.5 µM [inhibitor, single point]",–
CCOC(=O)N1CCN(C(=O)c2ccc(CSc3ccc(Cl)cc3)cc2)CC1,"inconclusive: 11.2 µM [inhibitor, partial curve, poor fit]",–
CCOC(=O)C1CCN(C(=O)Nc2ccc3nccnc3c2)CC1,"inconclusive: 2.51 µM [activator, full curve, poor fit]",–
CNc1ccccc1C(C)(C)c1cc(-c2cccc(Br)c2)no1,"inconclusive: 31.6 µM [inhibitor, single point]",–
O=S(=O)(CCN1CCOCC1)c1ccc(Oc2ccc(S(=O)(=O)CCN3CCOCC3)cc2)cc1,"inconclusive: 3.98 µM [activator, partial curve]",–
C=CCN1C(=O)c2ccc(C(=O)N(C)CC(=O)Nc3cccc(F)c3)cc2C1=O,inactive,–
C/C(=N/NC(=O)c1cccc(C)c1)c1c(O)cc(C)oc1=O,"inconclusive: 5.01 µM [inhibitor, full curve, poor fit]",–
CCOC(=O)c1nnn(-c2nonc2N)c1CSc1nnc(N)s1,inactive,–
Cc1nn(C)c(C(=O)NNC(=S)NC2CCCCC2)c1Cl,"inconclusive: 3.16 µM [inhibitor, full curve]",–
Cc1cc(C)n(-c2nc(SCC(=O)O)c3c4c(sc3n2)COC(C)(C)C4)n1,active: 7.08 µM,–
Cc1ccccc1CNc1ccc(C(CC(N)=O)NC(=O)c2ccccc2)cc1[N+](=O)[O-] (stereo not drawn),"inconclusive: 14.1 µM [activator, partial curve]",–
Cc1ccccc1C(=O)NC1CCN(CC(=O)Nc2ccc(Br)cc2)CC1,inactive,–
Cc1cccnc1NC(=S)Nc1ncccc1C,"inconclusive: 15.8 µM [inhibitor, single point]",–
CCn1c(COc2cccc3ccccc23)nnc1SCC(=O)OC1CCCCC1,"inconclusive: 5.62 µM [inhibitor, single point]",–

SMILES,Potency,"activity change, negative = inhibition"
COc1cc(NC(=S)NCCCN(C)C)c(OC)cc1NC(=O)c1ccco1,inactive,–
Cc1cc2c(cc1C)C(c1cccc([N+](=O)[O-])c1)CC(=O)N2 (stereo not drawn),"inconclusive: 35.5 µM [activator, single point]",–
OC(CN=c1sc2ccccc2n1CC(O)COc1ccccc1)COc1ccccc1 (stereo not drawn),"inconclusive: 31.6 µM [inhibitor, single point]",–
Cn1nc(C(=O)OCc2ccc(F)cc2)c2ccccc2c1=O,"inconclusive: 20 µM [activator, partial curve]",–
CCCCC(=O)NNC(=S)NC(=O)CCC,active: 10 µM,–
S=c1[nH]nc(-c2ccco2)n1/N=C/c1cccc(Cl)c1Cl,"inconclusive: 25.1 µM [inhibitor, single point]",–
COc1ccc2c(=O)cc(-c3ccccc3)oc2c1O,"inconclusive: 4.47 µM [activator, partial curve]",–
O=C(NNC(=O)C1CCN(S(=O)(=O)c2ccc(Cl)cc2)CC1)c1ccc(Cl)cc1,"inconclusive: 35.5 µM [inhibitor, single point]",–
O=C(Cn1nnc(-c2ccc(N3CCOCC3)cc2)n1)OC1CCCCC1,inactive,–
COc1cc(/C=C2\CC/C(=C\c3cc(OC)c(O)c(OC)c3)C2=O)cc(OC)c1O,"inconclusive: 35.5 µM [inhibitor, single point]",–
CC1CCN(C(=S)NC(=O)c2ccccc2Br)CC1,active: 0.562 µM,–
CCCCN1C(=O)/C(=C(/C#N)C(N)=O)c2ccccc21,"inconclusive: 22.4 µM [inhibitor, single point]",–
CCC1CCCCN1C(=O)CCCc1ccccc1 (stereo not drawn),inactive,–
Cc1cc(SCNC(=O)c2ccccc2)ncn1,"inconclusive: 25.1 µM [inhibitor, single point]",–
Cc1ccccc1NC(=S)N(CCCN1CCOCC1)Cc1cccnc1,inactive,–
Cc1noc(C)c1CSc1nc2sc3c(c2c(=O)n1C)CCCC3,inactive,–
CC(=O)Nc1c(I)c(C(=O)N[C@H]2[C@@H](O)[C@H](O)[C@H](CO)O[C@@H]2O)c(I)c(N(C)C(C)=O)c1I,–,inactive: 13.3% [at 2.98 µM]
COc1cccc(-c2ccc3ncnc(NCc4ccccc4)c3c2)c1,inactive,–
COc1cc(OC)cc(-c2n[nH]c(=S)n2-c2cc(OC)ccc2OC)c1,"inconclusive: 11.2 µM [inhibitor, partial curve]",–
CN1/C(=C/C(=S)NC(=O)C2(C)CC2(Cl)Cl)C(C)(C)c2ccccc21 (stereo not drawn),active: 4.47 µM,–
COc1cc(/C=C/C(=O)OCC(=O)Nc2cc(S(=O)(=O)N3CCCCC3)ccc2C)ccc1O,"inconclusive: 31.6 µM [activator, single point]",–
COc1ccc(S(=O)(=O)N2CCCCC2)cc1NS(=O)(=O)c1cc(Cl)ccc1Cl,inactive,–
COc1ccc(OC(C)C(=O)Nc2cccc([N+](=O)[O-])c2)cc1 (stereo not drawn),"inconclusive: 15.8 µM [activator, single point]",–
COc1ccc(CNC(=S)NCc2ccc(OC(C)C)cc2)cc1,"inconclusive: 28.2 µM [inhibitor, single point]",–
COC(=O)C/C=C/[C@@H](C)[C@@H](/C=N/OC[C@H]1O[C@H](c2ccccc2)C=C[C@@H]1Oc1ccc(OC)cc1)NS(=O)(=O)c1ccc(C)cc1,"inconclusive: 11.2 µM [activator, single point]",–

SMILES,Potency,"activity change, negative = inhibition"
CN(C)CCNC(=O)C12CC3(C)CC(C)(CC(C)(C3)C1)C2,inactive,–
N=c1oc2ccccc2cc1C(=O)N/N=C/c1ccccc1,"inconclusive: 25.1 µM [inhibitor, single point]",–
CCNC(=S)Nc1ccc(Cl)cc1Cl,active: 11.2 µM,–
O=c1oc2ccccc2cc1-c1cn(-c2ccccc2)c(=S)[nH]1,active: 1.26 µM,–
N#CC1=C2SCC(O)(c3ccccc3)N2C(=O)CC1c1ccccc1F (stereo not drawn),inactive,–
Cc1ccc(C(=O)N/N=C2/NC(=O)CC(C(=O)Nc3ccccc3)S2)cc1 (stereo not drawn),active: 3.16 µM,–
CCCC(=O)OC1CC(C)N(C(=O)c2ccccc2)c2ccc(C)cc21 (stereo not drawn),inactive,–
O=C(O)CCSc1nnc(-c2ccc3c(c2)OCO3)o1,active: 2.82 µM,–
CC(C)C(NC(=O)/C=C/c1cccc([N+](=O)[O-])c1)C(C)C,"inconclusive: 28.2 µM [activator, single point]",–
O=C(CSc1oc(-c2ccccc2)nc1S(=O)(=O)c1ccc(F)cc1)NCC1CCCO1 (stereo not drawn),"inconclusive: 35.5 µM [inhibitor, single point]",–
N#Cc1c(N2CCCC(O)C2)nc(N)c2c(N)nc3c(c12)CC(=O)N3C12CC3CC(CC(C3)C1)C2 (stereo not drawn),active: 3.98 µM,–
CCc1ccc2[nH]c3nc(SCCN4CCOCC4)nnc3c2c1,"inconclusive: 17.8 µM [activator, single point]",–
O=C(CSc1nc(-c2ccccc2)cs1)NCCN1C(=O)CSC1=O,"inconclusive: 15.8 µM [activator, single point]",–
O=C(NC12CC3CC(CC(C3)C1)C2)c1cccnc1Cl,inactive,–
CC(C)(C)C(=O)N/C(N)=N/c1nc2ccccc2o1,active: 3.98 µM,–
COCCN(C(=O)C(C)C)c1nnc(-c2ccc(C(C)(C)C)cc2)s1,"inconclusive: 3.16 µM [activator, partial curve]",–
OCCNCC(O)CN1c2ccccc2Sc2ccccc21 (stereo not drawn),"inconclusive: 35.5 µM [inhibitor, single point]",–
CCOc1ccc(N2C(=O)CC(Cc3ccccc3OC)C2=O)cc1 (stereo not drawn),"inconclusive: 14.1 µM [activator, single point]",–
CSc1sc(-c2n[nH]c(=S)n2C)c2c1C=CCC2,"inconclusive: 10 µM [inhibitor, partial curve]",–
COc1ccc(NS(=O)(=O)c2cccc(-c3nnc4n3CCCCC4)c2)cc1,"inconclusive: 12.6 µM [activator, single point]",–
Cc1nc2sc(C#N)c(N)c2c2c1CCCC2,inactive,–
COc1ccc2c(C)cc(=O)oc2c1C,"inconclusive: 2.51 µM [inhibitor, single point]",–
CC1=NN(C(=O)CSCc2ccccc2)C(O)(c2ccccc2)C1 (stereo not drawn),"inconclusive: 5.62 µM [inhibitor, single point]",–

# Among those listed so far, these have a thiophene ring, fused or not.
SMILES,Potency,"activity change, negative = inhibition"
O=c1c2c3c(sc2nc2sc(C4CC4)nn12)CCCC3,"inconclusive: 7.08 µM [activator, full curve, poor fit]",–
Cc1cc(C)n(-c2nc(SCC(=O)O)c3c4c(sc3n2)COC(C)(C)C4)n1,active: 7.08 µM,–
Cc1noc(C)c1CSc1nc2sc3c(c2c(=O)n1C)CCCC3,inactive,–
CSc1sc(-c2n[nH]c(=S)n2C)c2c1C=CCC2,"inconclusive: 10 µM [inhibitor, partial curve]",–
Cc1nc2sc(C#N)c(N)c2c2c1CCCC2,inactive,–
